The values below come from patent publication US20070166710A1, “Methods for inhibiting adipogenesis and for treating type 2 diabetes” (priority 2003, published 2007).

Results from cells or extracts need not show a direct contact. For some assays here: No signal at the amounts used counts as a negative. Tags and fusion partners may be left off the protein sequences shown. For some assays here: The exact form of at least one protein or probe is not confirmed.

The target of series [1] is T1, Foxa-1 (Hnf-3alpha) (UniProt P35582).
T1 sequence (looked up, limits assumed): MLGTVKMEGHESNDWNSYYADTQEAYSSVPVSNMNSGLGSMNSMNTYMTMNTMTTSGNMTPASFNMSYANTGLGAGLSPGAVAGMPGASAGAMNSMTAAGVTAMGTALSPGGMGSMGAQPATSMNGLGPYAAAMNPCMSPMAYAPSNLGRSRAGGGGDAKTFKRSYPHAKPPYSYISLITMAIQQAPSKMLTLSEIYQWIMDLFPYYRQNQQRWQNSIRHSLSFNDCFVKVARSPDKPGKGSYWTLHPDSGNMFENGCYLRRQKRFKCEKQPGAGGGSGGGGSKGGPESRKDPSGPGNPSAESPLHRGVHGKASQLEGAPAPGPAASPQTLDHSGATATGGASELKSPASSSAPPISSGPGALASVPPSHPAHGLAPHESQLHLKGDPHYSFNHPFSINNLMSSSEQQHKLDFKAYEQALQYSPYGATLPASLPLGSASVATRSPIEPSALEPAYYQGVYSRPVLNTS
The series is described as follows: EMSA. The settings on record: no supershift with anti-Foxa-1; Foxa-1 not detected in this tissue; protein in an extract; label: 32P. In general terms: A gel shift assay detects complexes by their altered migration in electrophoresis.

Series [2] deals with T2, Foxa-2 (Hnf-3beta), nuclear extract of ob/ob mouse fat (Mus musculus) (UniProt P35583).
T2 sequence (looked up, limits assumed): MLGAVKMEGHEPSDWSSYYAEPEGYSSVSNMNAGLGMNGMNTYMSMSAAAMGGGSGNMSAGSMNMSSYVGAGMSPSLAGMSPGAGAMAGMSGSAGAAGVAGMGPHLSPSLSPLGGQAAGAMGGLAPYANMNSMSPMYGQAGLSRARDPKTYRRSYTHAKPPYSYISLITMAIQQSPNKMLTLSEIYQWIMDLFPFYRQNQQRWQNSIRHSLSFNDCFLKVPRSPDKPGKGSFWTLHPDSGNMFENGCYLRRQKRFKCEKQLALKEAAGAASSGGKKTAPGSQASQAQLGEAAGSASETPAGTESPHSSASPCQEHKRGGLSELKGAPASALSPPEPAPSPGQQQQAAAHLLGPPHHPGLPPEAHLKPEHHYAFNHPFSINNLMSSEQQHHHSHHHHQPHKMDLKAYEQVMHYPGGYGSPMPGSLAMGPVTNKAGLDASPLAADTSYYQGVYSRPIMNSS
The series is described as follows: EMSA. To be noted: protein in an extract; label: 32P.

As for “CAGGTTGCCTGTTTGTTTTC (double strand) [Ucp-2 promoter Foxa site]”, the binding result in series [1] is given as “no binding”. As to “CTTATTTGCATATTTCCAGT (double strand) [Lpl promoter Foxa site]”, the results for the binding result in series [2] and in series [1] were “binds” and “no binding”, respectively.

In the case of “GTGTGTAATTATGTGCTTAG (double strand) [Pref-1 promoter Foxa site]”, the binding result in series [2] is given as “binds”; in series [1], “no binding”.
